Measured values from PMC3528715.
These are yes or no findings as the source states them, for the method shown. In cells and extracts the contact can be indirect.

Sequences of proteins named here, by UniProt entry; tags and fusion partners are left off.
UniProt P35611: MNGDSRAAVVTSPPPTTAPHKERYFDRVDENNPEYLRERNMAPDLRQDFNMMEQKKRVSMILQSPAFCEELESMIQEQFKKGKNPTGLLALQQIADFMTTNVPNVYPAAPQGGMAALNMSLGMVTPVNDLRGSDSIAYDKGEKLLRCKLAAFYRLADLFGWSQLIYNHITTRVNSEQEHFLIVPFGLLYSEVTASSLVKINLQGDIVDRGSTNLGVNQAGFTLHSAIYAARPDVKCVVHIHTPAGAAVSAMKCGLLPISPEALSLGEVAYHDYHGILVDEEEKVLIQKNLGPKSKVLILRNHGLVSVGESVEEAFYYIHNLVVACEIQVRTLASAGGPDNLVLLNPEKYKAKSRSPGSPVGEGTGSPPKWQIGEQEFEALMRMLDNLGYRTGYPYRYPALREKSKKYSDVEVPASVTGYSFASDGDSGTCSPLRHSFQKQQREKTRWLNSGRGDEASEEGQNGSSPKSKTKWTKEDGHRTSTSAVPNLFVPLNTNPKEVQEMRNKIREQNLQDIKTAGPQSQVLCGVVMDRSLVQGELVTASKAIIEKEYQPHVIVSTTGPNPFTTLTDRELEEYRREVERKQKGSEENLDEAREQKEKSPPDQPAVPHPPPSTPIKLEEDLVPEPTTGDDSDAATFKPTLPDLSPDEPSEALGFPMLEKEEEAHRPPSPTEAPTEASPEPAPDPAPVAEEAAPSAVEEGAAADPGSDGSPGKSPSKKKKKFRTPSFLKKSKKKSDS
UniProt P13569: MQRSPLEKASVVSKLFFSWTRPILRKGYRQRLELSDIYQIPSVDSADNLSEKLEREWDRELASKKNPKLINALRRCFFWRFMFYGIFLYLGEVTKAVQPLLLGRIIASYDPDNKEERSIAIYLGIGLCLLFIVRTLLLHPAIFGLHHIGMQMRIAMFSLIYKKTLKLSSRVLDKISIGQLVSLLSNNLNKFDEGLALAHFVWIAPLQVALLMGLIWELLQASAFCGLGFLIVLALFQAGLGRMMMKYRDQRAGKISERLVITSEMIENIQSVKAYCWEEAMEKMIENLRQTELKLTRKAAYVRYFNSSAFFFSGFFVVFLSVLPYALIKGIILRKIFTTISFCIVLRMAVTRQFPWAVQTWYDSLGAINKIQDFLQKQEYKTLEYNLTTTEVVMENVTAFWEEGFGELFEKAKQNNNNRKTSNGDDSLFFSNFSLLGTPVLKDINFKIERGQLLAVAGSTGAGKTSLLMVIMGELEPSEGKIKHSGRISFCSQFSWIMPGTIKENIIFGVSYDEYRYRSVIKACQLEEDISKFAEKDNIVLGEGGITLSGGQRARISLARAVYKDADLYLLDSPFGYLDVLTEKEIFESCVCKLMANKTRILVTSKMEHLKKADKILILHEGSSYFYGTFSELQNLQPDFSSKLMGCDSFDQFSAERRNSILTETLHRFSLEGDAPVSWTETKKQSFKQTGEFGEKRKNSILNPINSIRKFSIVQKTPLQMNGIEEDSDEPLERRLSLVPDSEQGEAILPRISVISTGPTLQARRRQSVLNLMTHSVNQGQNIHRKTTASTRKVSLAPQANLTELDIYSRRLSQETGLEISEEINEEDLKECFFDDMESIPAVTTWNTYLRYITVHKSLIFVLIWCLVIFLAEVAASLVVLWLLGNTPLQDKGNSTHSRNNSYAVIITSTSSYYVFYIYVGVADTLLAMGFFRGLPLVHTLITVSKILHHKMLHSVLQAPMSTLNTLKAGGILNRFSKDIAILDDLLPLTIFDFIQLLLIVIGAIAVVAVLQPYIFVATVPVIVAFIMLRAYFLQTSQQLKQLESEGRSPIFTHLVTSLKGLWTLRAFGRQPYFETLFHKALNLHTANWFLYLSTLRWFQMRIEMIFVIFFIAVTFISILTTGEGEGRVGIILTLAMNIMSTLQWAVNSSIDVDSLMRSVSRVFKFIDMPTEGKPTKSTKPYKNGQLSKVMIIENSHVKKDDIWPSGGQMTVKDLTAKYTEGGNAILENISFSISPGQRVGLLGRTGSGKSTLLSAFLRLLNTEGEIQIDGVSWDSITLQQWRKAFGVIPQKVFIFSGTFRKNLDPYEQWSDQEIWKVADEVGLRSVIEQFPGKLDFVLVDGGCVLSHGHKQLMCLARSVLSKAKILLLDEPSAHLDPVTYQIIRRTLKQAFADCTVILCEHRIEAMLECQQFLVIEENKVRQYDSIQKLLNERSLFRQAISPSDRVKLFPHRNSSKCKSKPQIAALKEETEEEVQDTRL

Legend:
[1] = target: HA-WT adducin (N-terminal HA-tag) (human) (UniProt P35611); assay: co-IP; HEK293 T cells co-expressing CFTR and HA-adducin; immunoprecipitated with anti-HA agarose affinity gel, 2 and 24 hours incubation; CFTR detected by blot
[2] = target: WT adducin-FLAG (C-terminal FLAG tag) (human) (UniProt P35611); assay: co-IP; HEK293 T cells co-expressing CFTR and adducin-FLAG; immunoprecipitated with an anti-FLAG antibody; CFTR detected by blot in lysates, flow through and five sequential eluates

binding [1]: no binding | binding [2]: no binding
Substance: CFTR (from pcDNA3-CFTR) (from UniProt P13569 1-1480)
